Measured values as given in doi:10.1101/2022.05.13.491168.

target: CvkR (Alr3614) (Anabaena (Nostoc) sp. PCC 7120) (UniProt A0ACD6B984); experiment: EMSA; conditions: residues 19-168

Binding result, binds more weakly:
TAAAACACATTAGTGCTTTGTATAACATTATGTGTTTTG (double strand) [P39]
TGCTTTGTATAACATTATGTGTTTTG (double strand) [P26]
GTATAACATTATGTGTTTTG (double strand) [P20]

For at least one entry, the source does not settle the construct or the ends of the probe. The comparison behind a weaker result is the experiment's own reference, which may not be listed here. At least one verdict rests on a figure or table, not on a statement of the authors.
